In PubChem BioAssay AID493014 (National Center for Advancing Translational Sciences (NCATS), 2011):
Values joined by “and” are separate entries in the source; they are usually repeats but may differ in a detail not shown here. Equal entries are not always repeated. About 170 (0.05%) of roughly 340,000 compounds were called active. Inconclusive means that the source gave no clear call. Such entries were picked first, then a sample of the others. The call rests on the fitted dose curve; in most records, active means well fitted inhibition curve with a large enough effect in the signal ratio, with a control signal flat (not every such curve was filed as active); inconclusive means small, poorly fitted or top-dose-only effect, or effect the other way, or a change in a side signal; inactive means flat fitted curve, though single readings scatter; the % refers to the signal ratio. Where the call is inconclusive, the potency comes from a doubtful curve fit.

Experiment: qHTS Assay to Find Inhibitors of Chronic Active B-Cell Receptor Signaling;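 on activity change, negative = inhibition: plate controls were basal doxycycline-induced cells for no effect and cells given 10 µM MG132 for full effect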
Conditions: ABC-DLBCL IkBa-CBG/CBR reporter, luminescence ratio (green luciferase fused to IkBa over red control in TMD8 lymphoma cells), 4 h; activity change, negative = inhibition: at 46.1 µM (top of the series) unless noted
Procedure, shortened: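 Concentration-response series (up to 46 uM) were applied to TMD8 dual-reporter cells for 4 h at 37C with doxycycline. Green/red ratio, after filter-overlap correction, defined %Activity; red signal alone was normalised to basal cells and zero luminescence.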
Potency means the concentration at half of the fitted maximal effect.

SMILES	activity change, negative = inhibition	Potency
Cc1onc(-c2ccc(Cl)cc2Cl)c1-c1csc(N/N=C/c2ccccc2)n1	inconclusive: 6.6%	–
CCCNC(=O)c1ccc2c(c1)ncn2-c1ccc(C)cc1C	inconclusive: 8.62%	–
COc1ccc(C(=O)ON=C2C=C(C)C(=O)C(C)=C2)cc1	inactive: 0.419%	–
CCOc1cc(/C=N/n2c(COc3ccccc3)n[nH]c2=S)ccc1O	inactive: -19.3%	–
COC(=O)c1cc2c(=O)n3ccccc3nc2n(C)c1=N	inconclusive: 1.44%	–
CCOC(=O)c1c(NC(=O)CS(=O)(=O)c2ccc(C)cc2)sc2c1CCCCC2	–	inconclusive: 35.5 µM [rising, single point]
COc1ccc(N2C(N)=C(C#N)C(c3ccsc3)C3=C2CCCC3=O)c(OC)c1 (stereo not given)	inconclusive: 7.22%	–
O=C(CNC(=O)c1ccccc1)NCC(=O)OCc1ccccc1Cl	inconclusive: 4%	–
O=S(=O)(NCCOC12CC3CC(CC(C3)C1)C2)c1cccc2nsnc12	inactive: 0.843%	–
O=C(CSc1ccc2c(c1)OCCO2)Nc1cccc(S(=O)(=O)N2CCCCC2)c1	inactive: -7.07%	–
Cn1c(NNC(=O)CCC2CCCCC2)cc(=O)n(C)c1=O	inconclusive: -13.6%	–
COc1ccc(-c2cc(C)no2)cc1S(=O)(=O)N1CCCN(Cc2ccccc2Cl)C1	inconclusive: 0.268%	–
COc1ccc(NC(=O)CSc2nc3c(c(=O)n2-c2ccc(C)cc2)SCC3)c(OC)c1	inconclusive: 3.66%	–
Cc1ccc(NS(=O)(=O)c2ccc(Cl)s2)nc1	inactive: -3.05%	–
COc1ccc(/C=N/NC(=O)c2cccc([N+](=O)[O-])c2)c2ccccc12	inactive: -0.47%	–
CC1CCN(c2nc3ccc(C(=O)N4CCN(Cc5ccccc5)CC4)cc3s2)CC1	–	inconclusive: 23.1 µM [falling, partial curve]
CCN(CC(=O)Nc1ccc2c(c1)OCCO2)S(=O)(=O)c1cccs1	–	inconclusive: 8.2 µM [falling, partial curve]
C/C(=N\NC(=O)C(c1ccccc1)c1ccccc1)c1ccccn1	inactive: -1.96%	–
CCN(CC)S(=O)(=O)c1ccc(S(=O)(=O)N2CCN(C(=O)c3ccco3)CC2)cc1	inconclusive: 7.47%	–
S=C(NCc1ccco1)Nc1ccc(Oc2ccccc2)cc1	inconclusive: -2.14%	–
Cc1cc2cc(CNS(=O)(=O)c3ccccc3)ccc2n1C	–	inconclusive: 4.11 µM [rising, partial curve]
COc1ccc(C(=O)Nc2ccc(C(=O)N3CCCC3)cc2)cc1[N+](=O)[O-]	inconclusive: -7.98%	–
COc1ccc(/C=C/C(=O)Nc2c(C(=O)O)[nH]c3ccccc23)cc1OC	inconclusive: -14.5%	–
COc1cccc(Nc2nc(-c3cccnc3)cs2)c1	inconclusive: -22.4%	–
C#CCSc1nc(C)cc(C(=O)OCC)c1C#N	inconclusive: -10.4%	–
Cc1ccc(Cn2nnc3c(=O)n(CC(=O)OCc4ccccc4)cnc32)cc1	inconclusive: 9.5%	–
O=S(=O)([N-]c1nc2ccccc2nc1-[n+]1ccc(CCCc2ccccc2)cc1)c1cccs1	–	inconclusive: 12.6 µM [rising, partial curve, poor fit]

SMILES	activity change, negative = inhibition	Potency
N#Cc1c(NC(=O)C2CC(Cl)=CCC2C(=O)O)sc2c1CCCC2 (stereo not given)	inconclusive: 4.82%	–
COc1cccc(/C=N\NC(=O)c2ccc(Cn3cc(Br)c([N+](=O)[O-])n3)o2)c1O	–	inconclusive: 2.82 µM [falling, full curve]
N#CC1=C(N)N(c2ccc(Oc3ccccc3)cc2)C(=O)C1	inconclusive: 1.13%	–
CCSc1cc(N2CCCC2)nc(-c2ccc(C)cc2)n1	inconclusive: 9.53%	–
COc1cc(OC)cc(C(=O)NC(=S)Nc2ccc(NC(=O)c3ccco3)cc2)c1	inconclusive: -1.19%	–
CCOc1ccc2nc(NCCO)[nH]c2c1	inactive: -0.715%	–
OC1(c2ccc3c(c2)OCO3)CCN(Cc2ccccn2)CC1	inactive: -0.187%	–
CCCCn1c(O)c(N=NC(=O)c2ccncc2)c2cc(Br)ccc21	inconclusive: -0.184%	–
CCN(C(=O)COC(=O)c1cnccn1)c1cccc2ccccc12	inconclusive: 4.07%	–
CN1CCN(C(=O)C2=C[C@@H](c3coc4ccccc4c3=O)C[C@@H](OCc3ccc(CO)cc3)O2)CC1	inconclusive: 8.48%	–
Cc1cc(C=O)c(C)n1-c1ccc(Cl)c(C(=O)O)c1	inactive: -2.15%	–
NC(=O)C1(N2CCCCC2)CCN(C(=O)NC23CC4CC(CC(C4)C2)C3)CC1	inconclusive: 0.802%	–
C/C(=N\N1CCN(c2ccccc2)CC1)c1ccncc1	inconclusive: 13%	–
Cc1ccc(/C=C/C(=O)Nc2nc3ccccc3[nH]2)cc1	inactive: 7.04%	–
CC(C)(C)c1ccc(OCCC(=O)OCC(=O)NCc2ccccc2)cc1	–	inconclusive: 32.6 µM [falling, single point]
COc1cc(/C=C(/C#N)c2nc3ccccc3[nH]2)ccc1OC(=O)c1ccco1	inconclusive: 1.24%	–
COc1cc(OC)c(C(=O)OCC(=O)NCC2CCCCC2)cc1OC	inconclusive: 1.43%	–
CS(=O)(=O)NNC(=O)c1cc2cc3ccccc3nc2s1	inconclusive: -3.87%	–
COc1ccccc1-c1ccc(SCc2cccc(F)c2)nn1	–	inconclusive: 35.5 µM [falling, single point]
Cc1cc(=O)[nH]c(N/N=C/c2sccc2C)n1	–	inconclusive: 14.6 µM [falling, partial curve]
O=C(O)c1cccc2c1C(=O)c1ccc(-c3ccc(F)cc3OCc3ccccc3)cc1S2(=O)=O	–	inconclusive: 20.6 µM [falling, single point]
COc1ccc(NC(=O)Cc2csc(NC(=O)Nc3ccccc3OC)n2)c(OC)c1	–	inconclusive: 7.31 µM [rising, partial curve]
O=C(O)c1cccc(CSc2nnc(-c3cccnc3)o2)c1	–	inconclusive: 22.4 µM [falling, single point]
Nn1cnnc1N/N=C/c1ccc(Cl)c([N+](=O)[O-])c1	inconclusive: 5.46%	–
O=C(CCNc1ccccc1)c1ccc2c(c1)OCO2	inconclusive: -11.1%	–
COc1cc(/C=C2\SC(c3ccc(C)cc3)=NC2=O)cc(OC)c1OC	inconclusive: -23%	–
COc1cc(N2C(=O)CSC2=S)cc(OC)c1OC	–	inconclusive: 35.5 µM [falling, single point]

SMILES	activity change, negative = inhibition	Potency
Cc1nc2c(c(=O)n1Cc1ccccc1Cl)c1nc3ccccc3nc1n2Cc1ccco1	–	inconclusive: 29.1 µM [falling, single point]
CC(C)c1ccc(NC(=O)c2cc(S(=O)(=O)NCC3COc4ccccc4O3)ccc2F)cc1 (stereo not given)	–	inconclusive: 20.6 µM [falling, partial curve, poor fit]
CC(=O)c1cccc(NC(=O)c2ccncc2)c1	inconclusive: 5.34%	–
OC(CCN1CCCC1)(c1ccccc1)C1CCCCC1 (stereo not given)	–	inconclusive: 11.2 µM [falling, partial curve]
CCOc1ccccc1/C=C/c1onc(C)c1S(=O)(=O)N1CCC(C(=O)N(CC)CC)CC1	inconclusive: -2.96% and inconclusive: -3.73%	–
Nc1nnc(-c2cn(-c3ccccc3)nc2-c2ccc(Cl)cc2)o1	inconclusive: 0.317%	–
O=c1cc(-c2ccc(Cl)cc2)[nH]c2ccccc12	–	inconclusive: 8.91 µM [falling, partial curve, poor fit]
O=S(=O)(NC1c2cccc3cccc(c23)C1N1CCN(CCO)CC1)c1ccccc1 (stereo not given)	inactive: -15.2%	–
O=C(O)c1ccc(Cn2cnc3sc4c(c3c2=O)CCCC4)cc1	inconclusive: -0.967%	–
COC(=O)c1ccc(-c2noc(CN(C)CCC3CCCCO3)n2)cc1 (stereo not given)	–	inconclusive: 3.98 µM [falling, partial curve]
CC(C)[C@H](NC(=O)c1ccccc1)C(=O)NCCc1ccccc1	inconclusive: 13.4%	–
Cc1cc(C)n(CC(C)Nc2nc3nonc3nc2N2CCCCC2)n1 (stereo not given)	–	inconclusive: 5.62 µM [falling, full curve, poor fit]
COc1ccc(CN(C)S(=O)(=O)c2nnc(NC(=O)c3cccc(F)c3)s2)cc1OC	inconclusive: 12.4%	–
COc1ccc2c(c1OC)C(=O)OC2CC(=O)c1ccc(O)cc1 (stereo not given)	–	inconclusive: 11.2 µM [falling, partial curve, poor fit]
O=C1C2C3C=CC(C3)C2C(=O)N1/N=C/c1ccc(-c2ccccc2[N+](=O)[O-])o1 (stereo not given)	inactive: -1.1%	–
O=C(Cc1ccccc1)Nc1nc2ccccc2[nH]1	inactive: -1.19%	–
CC(C)Cn1cc(C(=O)N2CCOCC2)c2c3ccccc3n(C)c2c1=O	inactive: -1.77%	–
COc1cc2c(cc1NC(=O)CSc1nnc(COc3ccc(Cl)cc3)n1C)oc1ccccc12	inconclusive: 1.51%	–
CS(=O)(=O)N(Cc1ccccc1)c1ccccc1C(=O)Nc1ccccc1C(=O)NCc1ccco1	inconclusive: 5.47%	–
Cc1ccc(-c2nc3ccccc3nc2-c2ccccc2)cc1	inconclusive: 3.88%	–
O/N=C/c1ccnc(SCc2ccc(Cl)cc2)n1	inactive: 1.26%	–
CCC(Sc1nc2n[nH]c(C)c2c(=N)n1-c1cccc(Cl)c1)C(=O)NCCOC (stereo not given)	–	inconclusive: 14.1 µM [falling, partial curve]
CN1CCN(c2ccccc2NC(=O)c2cccc(OCc3ccccc3)c2)CC1	inconclusive: -16.2%	–
CCc1ccc(/C(C)=N/NC(=O)c2c[nH]c3ccccc23)s1	–	inconclusive: 5.01 µM [falling, partial curve, poor fit]
COc1cccc(C2C(C(C)=O)=C(O)C(=O)N2CCNCCO)c1 (stereo not given)	inconclusive: 13.8%	–
Cn1c(N2CCCCC2)nc2c1c(=O)[nH]c(=O)n2C	inactive: -0.483%	–

Some of the entries so far, with bars between the fields.
SMILES | activity change, negative = inhibition | Potency
COc1ccc(NC(=O)CSc2nc3c(c(=O)n2-c2ccc(C)cc2)SCC3)c(OC)c1 | inconclusive: 3.66% | –
Cc1ccc(NS(=O)(=O)c2ccc(Cl)s2)nc1 | inactive: -3.05% | –
COc1ccc(/C=N/NC(=O)c2cccc([N+](=O)[O-])c2)c2ccccc12 | inactive: -0.47% | –
CC1CCN(c2nc3ccc(C(=O)N4CCN(Cc5ccccc5)CC4)cc3s2)CC1 | – | inconclusive: 23.1 µM [falling, partial curve]
